Measurements reported in patent US20030108920A1.
These are yes or no findings as the source states them, for the method shown. For part of these data: Binding seen in cells or lysates may run through a third protein. Some results given as binding are weak or reduced against the parent protein; the word gives no strength.

Amino acid sequences for entries named in this document (tags omitted). Residues count along the entry.
UniProt P18065, residues 36-325: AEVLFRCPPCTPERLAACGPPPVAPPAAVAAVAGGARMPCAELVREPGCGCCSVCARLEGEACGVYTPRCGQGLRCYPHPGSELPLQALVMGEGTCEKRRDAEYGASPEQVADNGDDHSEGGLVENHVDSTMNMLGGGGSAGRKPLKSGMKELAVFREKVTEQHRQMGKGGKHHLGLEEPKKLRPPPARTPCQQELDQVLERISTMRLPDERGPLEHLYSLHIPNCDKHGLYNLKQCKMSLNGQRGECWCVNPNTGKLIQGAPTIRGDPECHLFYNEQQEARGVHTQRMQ

Tests used:
[1] = target: Insulin-Like Growth Factor Binding Protein 2 (IGFBP2) (UniProt P18065); test: yeast two-hybrid screen
[2] = target: Insulin-Like Growth Factor Binding Protein 2 (IGFBP2) (UniProt P18065); test: co-immunoprecipitation in HEK 293 cells
[3] = target: Insulin-Like Growth Factor Binding Protein 2 (IGFBP2) (UniProt P18065); test: yeast two-hybrid screen of a human fetal brain cDNA library (growth on Ade His media, blue with X-gal)

Measured: binding

B1: clone 86 protein (protein)
chain: ACRGDLRDVARSGVASLPPAKCQHQESLGRPRPHSAPSLGTSSLRDPEPSGRLGDPGPQEAQTPRSILAQQSKLSKPRVTFSEESAVPERSWRLRPYLGYDWIAGSLDTSSSITSQPEAFFSKLQEFRETNKEECICSHPEPQLPGLRESSGSGVEEDHECVYCYRVNRRLFPVPVDPGTPCRLCRTPRDQQGPGTLAQPAHVRVSIPLSILEPPHRYHIHRRKSFDASDTLALPRHCLLGWDIFPPKSEKSSAPRNLDLWSSVSAEAQHQKLSGTSSPFHPGPALQP
binds: all assays above
